From patent publication US20190291112A1, “DROPLET MICROFLUIDICS FOR DRUG SCREENING” (University of Macau, priority 2018, published 2019)

Key:
Assay type in all cases: cell-based
Jurkat cells [1] = test: On chip drug screening assay (ethidium homodimer 1 staining); conditions: Homo sapiens, 16-24 h
Protocol: Jurkat E6.1 cells (ATCC® TIB-152™) and MDA-MB-231 cells (ATCC® HTB-26™) were used as models for suspended and adherent cancer cell lines respectively. Jurkat cell line was derived from human acute T cell leukemia, whereas MDA-MB-231 cell line was derived from human metastatic breast adenocarcinoma. On chip drug screening was performed using the PDMS-based microfluidic chip as described above. A 500 μL glass syringe (Hamilton, USA) and polytetrafluoroethylene (PTFE) tubings with appropriate bore (Cole Parmer, USA) was used to connect between the syringe pump (Harvard Apparatus PHD Ultra Syringe Pump, USA) and the microfluidic chip. […] Brightfield and red fluorescence images (Ex. 531/40 nm, Em. 593/40 nm) were taken under 10× magnification (Life Technologies EVOS FL Imaging System, USA). For on chip assays, brightfield and red fluorescence images were initially processed by ImageJ v.1.50i, Cell counting was either performed manually or by Matlab v.R201.5a based on the workflow shown on FIG. 5B. Briefly, cells from brightfield and red fluorescence images were detected separately using a heuristic Hough Transformation model based on threshold implementation on circular diameter and pixel intensity. […] Afterwards, cells were distinguished from noise based on the brightfield image, whereas cell viability was determined by signal intensity of corresponding red fluorescence image. […]

Jurkat cells [2] = test: 384-well microtiter plate drug screening assay (Alamar Blue); conditions: Homo sapiens, 384-well plate, 16-24 h
Protocol: (§1) Jurkat E6.1 cells (ATCC® TIB-152™) and MDA-MB-231 cells (ATCC® HTB-26™) were used as models for suspended and adherent cancer cell lines respectively. Jurkat cell line was derived from human acute T cell leukemia, whereas MDA-MB-231 cell line was derived from human metastatic breast adenocarcinoma.
(§2) Microtiter plate drug screening assays were carried out on 96-well clear round flat-bottom plates (Corning, USA) or 384-well white square flat-bottom plates (Corning, USA).
(§3) First, 5.0×10^5 or 1.0×10^5 cells were seeded per well for 96-well and 384-well plates respectively. Drugs were diluted with Dulbecco's phosphate-buffered saline (DPBS) (Life Technologies, USA), and subsequently added to achieve final drug concentrations as indicated on the graphs. Afterwards, the plates were transferred to humidified incubator at 37° C. supplemented with 5% CO2 for 16-24 h incubation. Finally, Alamar Blue assay was used to measure cell viability. Fluorescence intensity (Ex. 560 nm, Em. 590 nm) using auto-cutoff was measured from bottom on plate reader (Molecular Devices SpectraMax MS Plate Reader, USA). […]
(§4) For microliter plate assays, average relative fluorescence signal measured by plate reader from 6 reads of each well was used as raw data point. Cell viability was calculated as follows: […]

Jurkat cells [3] = test: 96-well microtiter plate drug screening assay (Alamar Blue); conditions: Homo sapiens, 96-well plate, 16-24 h
Protocol: as §1, §2, §3, §4

Measured: IC50

O=C(CCCCCCC(=O)Nc1ccccc1)NO [vorinostat]
> 50 µM: all assays above
